{"source": "the supplement of paper PMC8728848", "binders": {"B1": {"name": "SynCAM (Mus musculus) (protein)", "chain": "MASAVLPSGSQCAAAAAVAAAAAPPGLRLRLLLLLLSAAALIPTGDGQNLFTKDVTVIEGEVATISCQVNKSDDSVIQLLNPNRQTIYFRDFRPLKDSRFQLLNFSSSELKVSLTNVSISDEGRYFCQLYTDPPQESYTTITVLVPPRNLMIDIQKDTAVEGEEIEVNCTAMASKPATTIRWFKGNKELKGKSEVEEWSDMYTVTSQLMLKVHKEDDGVPVICQVEHPAVTGNLQTQRYLEVQYKPQVHIQMTYPLQGLTREGDAFELTCEAIGKPQPVMVTWVRVDDEMPQHAVLSGPNLFINNLNKTDNGTYRCEASNIVGKAHSDYMLYVYDPPTTIPPP"}}, "experiment_in_all_cases": "glycan array binding signal (z-score within array); higher = stronger binding", "settings_in_all_cases": "glycan notation: IUPAC condensed, linker removed", "key": {"[1]": {"molecular_target": "GalNAc3S(b1-4)[Fuc(a1-3)]GlcNAc", "in_short": "(§1)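 From the Consortium for Functional Glycomics database, 3228 arrays were curated, keeping only those whose protein sequence was available. Binding is given as a within-array Z-score averaged across arrays sharing a protein sequence and across linkers. Negative Z-scores can be read as non-binding.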"}, "GalNAc4S6S(b1-4)GlcNAc": {"molecular_target": "GalNAc4S6S(b1-4)GlcNAc", "in_short": "as §1"}, "GalNAc6S(b1-4)GlcNAc": {"molecular_target": "GalNAc6S(b1-4)GlcNAc", "in_short": "as §1"}, "Glc(a1-4)Glc": {"molecular_target": "Glc(a1-4)Glc", "in_short": "as §1"}, "[2]": {"molecular_target": "Glc(a1-4)Glc(a1-4)Glc(a1-4)Glc", "in_short": "as §1"}, "Glc(a1-6)Glc(a1-6)Glc": {"molecular_target": "Glc(a1-6)Glc(a1-6)Glc", "in_short": "as §1"}, "[3]": {"molecular_target": "Glc(a1-6)Glc(a1-6)Glc(a1-6)Glc", "in_short": "as §1"}, "Glc(b1-4)Glc": {"molecular_target": "Glc(b1-4)Glc", "in_short": "as §1"}, "Glc(b1-6)Glc": {"molecular_target": "Glc(b1-6)Glc", "in_short": "as §1"}, "GlcA(b1-3)Gal": {"molecular_target": "GlcA(b1-3)Gal", "in_short": "as §1"}, "GlcA(b1-3)GlcNAc": {"molecular_target": "GlcA(b1-3)GlcNAc", "in_short": "as §1"}, "GlcA(b1-6)Gal": {"molecular_target": "GlcA(b1-6)Gal", "in_short": "as §1"}, "[4]": {"molecular_target": "GlcA3S(b1-3)Gal(b1-4)GlcNAc(b1-2)Man", "in_short": "as §1"}, "[5]": {"molecular_target": "GlcA3S(b1-3)Gal(b1-4)GlcNAc(b1-3)Gal(b1-4)Glc", "in_short": "as §1"}, "[6]": {"molecular_target": "GlcNAc(a1-3)Gal(b1-4)GlcNAc", "in_short": "as §1"}, "[7]": {"molecular_target": "GlcNAc(a1-4)Gal(b1-3)GlcNAc", "in_short": "as §1"}, "[8]": {"molecular_target": "GlcNAc(a1-4)Gal(b1-4)GalNAc", "in_short": "as §1"}, "[9]": {"molecular_target": "GlcNAc(a1-4)Gal(b1-4)GlcNAc", "in_short": "as §1"}, "[10]": {"molecular_target": "GlcNAc(a1-4)Gal(b1-4)GlcNAc(b1-3)Gal(b1-4)Glc", "in_short": "as §1"}, "[11]": {"molecular_target": "GlcNAc(a1-4)Gal(b1-4)GlcNAc(b1-3)Gal(b1-4)GlcNAc", "in_short": "as §1"}, "[12]": {"molecular_target": "GlcNAc(a1-4)Gal(b1-4)GlcNAc(b1-3)Gal(b1-4)GlcNAc(b1-3)Gal(b1-4)GlcNAc", "in_short": "as §1"}, "[13]": {"molecular_target": "GlcNAc(a1-4)Gal(b1-4)GlcNAc(b1-3)Gal(b1-4)[Fuc(a1-3)]GlcNAc(b1-3)Gal(b1-4)[Fuc(a1-3)]GlcNAc", "in_short": "as §1"}, "[14]": {"molecular_target": "GlcNAc(a1-6)Gal(b1-4)GlcNAc", "in_short": "as §1"}, "[15]": {"molecular_target": "GlcNAc(b1-2)Gal(b1-3)GalNAc", "in_short": "as §1"}, "[16]": {"molecular_target": "GlcNAc(b1-2)Man(a1-3)[GlcNAc(b1-2)Man(a1-6)]Man(b1-4)GlcNAc(b1-4)GlcNAc", "in_short": "as §1"}, "[17]": {"molecular_target": "GlcNAc(b1-2)Man(a1-3)[GlcNAc(b1-2)Man(a1-6)]Man(b1-4)GlcNAc(b1-4)[Fuc(a1-6)]GlcNAc", "in_short": "as §1"}, "[18]": {"molecular_target": "GlcNAc(b1-2)Man(a1-3)[GlcNAc(b1-4)][GlcNAc(b1-2)Man(a1-6)]Man(b1-4)GlcNAc(b1-4)GlcNAc", "in_short": "as §1"}, "[19]": {"molecular_target": "GlcNAc(b1-2)Man(a1-3)[GlcNAc(b1-4)][GlcNAc(b1-2)Man(a1-6)]Man(b1-4)GlcNAc(b1-4)[Fuc(a1-6)]GlcNAc", "in_short": "as §1"}, "[20]": {"molecular_target": "GlcNAc(b1-2)[GlcNAc(b1-4)]Man(a1-3)[GlcNAc(b1-2)Man(a1-6)]Man(b1-4)GlcNAc(b1-4)GlcNAc", "in_short": "as §1"}, "[21]": {"molecular_target": "GlcNAc(b1-2)[GlcNAc(b1-4)]Man(a1-3)[GlcNAc(b1-4)][GlcNAc(b1-2)Man(a1-6)]Man(b1-4)GlcNAc(b1-4)GlcNAc", "in_short": "as §1"}, "[22]": {"molecular_target": "GlcNAc(b1-2)[GlcNAc(b1-4)]Man(a1-3)[GlcNAc(b1-4)][GlcNAc(b1-2)[GlcNAc(b1-6)]Man(a1-6)]Man(b1-4)GlcNAc(b1-4)GlcNAc", "in_short": "as §1"}, "[23]": {"molecular_target": "GlcNAc(b1-2)[GlcNAc(b1-4)]Man(a1-3)[GlcNAc(b1-4)][GlcNAc(b1-2)[GlcNAc(b1-6)]Man(a1-6)]Man(b1-4)GlcNAc(b1-4)[Fuc(a1-6)]GlcNAc", "in_short": "as §1"}, "[24]": {"molecular_target": "GlcNAc(b1-2)[GlcNAc(b1-6)]Man(a1-6)[GlcNAc(b1-2)Man(a1-3)]Man(b1-4)GlcNAc(b1-4)GlcNAc", "in_short": "as §1"}, "[25]": {"molecular_target": "GlcNAc(b1-2)[GlcNAc(b1-6)]Man(a1-6)[GlcNAc(b1-2)Man(a1-3)]Man(b1-4)GlcNAc(b1-4)[Fuc(a1-6)]GlcNAc", "in_short": "as §1"}, "[26]": {"molecular_target": "GlcNAc(b1-2)[GlcNAc(b1-6)]Man(a1-6)[GlcNAc(b1-4)][GlcNAc(b1-2)Man(a1-3)]Man(b1-4)GlcNAc(b1-4)GlcNAc", "in_short": "as §1"}, "GlcNAc(b1-3)Fuc": {"molecular_target": "GlcNAc(b1-3)Fuc", "in_short": "as §1"}, "GlcNAc(b1-3)Gal": {"molecular_target": "GlcNAc(b1-3)Gal", "in_short": "as §1"}, "[27]": {"molecular_target": "GlcNAc(b1-3)Gal(b1-3)GalNAc", "in_short": "as §1"}}, "note": "The list shows a part of the results."}
{"binder": "B1", "values": [{"measurement": "glycan array binding signal (z-score)", "setting": "[1]", "value": -0.316}, {"measurement": "glycan array binding signal (z-score)", "setting": "GalNAc4S6S(b1-4)GlcNAc", "value": -0.215}, {"measurement": "glycan array binding signal (z-score)", "setting": "GalNAc6S(b1-4)GlcNAc", "value": -0.096}, {"measurement": "glycan array binding signal (z-score)", "setting": "Glc(a1-4)Glc", "value": -0.476}, {"measurement": "glycan array binding signal (z-score)", "setting": "[2]", "value": 0.087}, {"measurement": "glycan array binding signal (z-score)", "setting": "Glc(a1-6)Glc(a1-6)Glc", "value": -1.23}, {"measurement": "glycan array binding signal (z-score)", "setting": "[3]", "value": -0.37}, {"measurement": "glycan array binding signal (z-score)", "setting": "Glc(b1-4)Glc", "value": -0.753}, {"measurement": "glycan array binding signal (z-score)", "setting": "Glc(b1-6)Glc", "value": -0.181}, {"measurement": "glycan array binding signal (z-score)", "setting": "GlcA(b1-3)Gal", "value": -0.854}, {"measurement": "glycan array binding signal (z-score)", "setting": "GlcA(b1-3)GlcNAc", "value": -0.282}, {"measurement": "glycan array binding signal (z-score)", "setting": "GlcA(b1-6)Gal", "value": -0.287}, {"measurement": "glycan array binding signal (z-score)", "setting": "[4]", "value": -0.452}, {"measurement": "glycan array binding signal (z-score)", "setting": "[5]", "value": -0.697}, {"measurement": "glycan array binding signal (z-score)", "setting": "[6]", "value": 0.779}, {"measurement": "glycan array binding signal (z-score)", "setting": "[7]", "value": -0.742}, {"measurement": "glycan array binding signal (z-score)", "setting": "[8]", "value": 1.3}, {"measurement": "glycan array binding signal (z-score)", "setting": "[9]", "value": -1.14}, {"measurement": "glycan array binding signal (z-score)", "setting": "[10]", "value": -0.804}, {"measurement": "glycan array binding signal (z-score)", "setting": "[11]", "value": -0.509}, {"measurement": "glycan array binding signal (z-score)", "setting": "[12]", "value": -0.69}, {"measurement": "glycan array binding signal (z-score)", "setting": "[13]", "value": -0.398}, {"measurement": "glycan array binding signal (z-score)", "setting": "[14]", "value": -0.421}, {"measurement": "glycan array binding signal (z-score)", "setting": "[15]", "value": -1.15}, {"measurement": "glycan array binding signal (z-score)", "setting": "[16]", "value": -0.116}, {"measurement": "glycan array binding signal (z-score)", "setting": "[17]", "value": -0.477}, {"measurement": "glycan array binding signal (z-score)", "setting": "[18]", "value": 0.08}, {"measurement": "glycan array binding signal (z-score)", "setting": "[19]", "value": -1.06}, {"measurement": "glycan array binding signal (z-score)", "setting": "[20]", "value": 0.069}, {"measurement": "glycan array binding signal (z-score)", "setting": "[21]", "value": 0.664}, {"measurement": "glycan array binding signal (z-score)", "setting": "[22]", "value": -0.132}, {"measurement": "glycan array binding signal (z-score)", "setting": "[23]", "value": 0.102}, {"measurement": "glycan array binding signal (z-score)", "setting": "[24]", "value": -0.446}, {"measurement": "glycan array binding signal (z-score)", "setting": "[25]", "value": -0.466}, {"measurement": "glycan array binding signal (z-score)", "setting": "[26]", "value": -0.782}, {"measurement": "glycan array binding signal (z-score)", "setting": "GlcNAc(b1-3)Fuc", "value": -0.241}, {"measurement": "glycan array binding signal (z-score)", "setting": "GlcNAc(b1-3)Gal", "value": -0.269}, {"measurement": "glycan array binding signal (z-score)", "setting": "[27]", "value": 0.922}]}
